PubChem BioAssay AID1159579 | Peter MacCallum Cancer Centre – 2015

- Purpose: 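Find genes whose silencing alters migration of lymphatic endothelial cells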 (follow-up of hits)
- System: human dermal lymphatic endothelial cells
- Reagent: single siRNA against human genes, 25 nM
- Measurement: 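Scratch wound imaging measuring area filled by moving cells plus nuclei number, averaged over two wells and scaled to mock-transfected controls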
- Reading the numbers: migration relative to mock: higher = more migration into the scratch; mean nuclei count: higher = more cells remaining
- Hit rule: 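Called active when the migration ratio is 0.6 or lower (impaired) or 1.3 or higher (accelerated), but inactive whenever the mean nuclei count falls under 3300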
- Meaning of the calls: active = migration changed (impaired or accelerated); inactive = no migration change, or too few cells
Here is a random part of about 2,000 deposited reagents. In the full data, 549 (27%) were called active. 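Some migration ratios are negative; siRNAs with too few cells are inactive whatever their migration ratio.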 Unmarked entries are inactive. Reagents against one gene are numbered here. The record does not give: the time to read-out.

| gene | reagent no. | migration relative to mock | migration and cell number class | mean nuclei count |
| --- | --- | --- | --- | --- |
| TBCB | 1 | 1.01 | no change in migration or cell number | 5832 |
| TBCB | 2 | 0.66 | no change in migration or cell number | 7570 |
| TBCB | 3 | 0.75 | no change in migration or cell number | 5345 |
| TBCB | 4 | 0.91 | no change in migration or cell number | 6144 |
| CHSY3 | 1 | 0.62 | no change in migration or cell number | 6134 |
| CHSY3 | 2 | 0.36 (active) | migration reduced | 4455 |
| CHSY3 | 3 | 0.46 (active) | migration reduced | 3908 |
| CHSY3 | 4 | 0.9 | no change in migration or cell number | 5382 |
| TCF12 | 1 | 0.52 (active) | migration reduced | 5218 |
| TCF12 | 2 | 0.86 | no change in migration or cell number | 6258 |
| TCF12 | 3 | 0.74 | no change in migration or cell number | 6145 |
| TCF12 | 4 | 0.82 | no change in migration or cell number | 6154 |
| CAMKK1 | 1 | 0.88 | no change in migration or cell number | 5854 |
| CAMKK1 | 2 | 0.85 | no change in migration or cell number | 6568 |
| CAMKK1 | 3 | 0.8 | no change in migration or cell number | 6204 |
| CAMKK1 | 4 | 0.88 | no change in migration or cell number | 6590 |
| SPICE1 | 1 | 0.56 (active) | migration reduced | 4912 |
| SPICE1 | 2 | 0.8 | no change in migration or cell number | 6164 |
| SPICE1 | 3 | -0.02 (active) | migration reduced | 4099 |
| SPICE1 | 4 | 0.79 | no change in migration or cell number | 5504 |
| CYP4F11 | 1 | -1.52 | too few cells; migration not scored | 2631 |
| CYP4F11 | 2 | 0.74 | no change in migration or cell number | 7927 |
| CYP4F11 | 3 | 0.69 | no change in migration or cell number | 5314 |
| CYP4F11 | 4 | 0.76 | no change in migration or cell number | 6322 |

Laid out differently: results already given.
gene	reagent no.	migration relative to mock	migration and cell number class	mean nuclei count
CHSY3	4	0.9	no change in migration or cell number	5382
TCF12	1	0.52 (active)	migration reduced	5218

The results go on.
| gene | reagent no. | migration relative to mock | migration and cell number class | mean nuclei count |
| --- | --- | --- | --- | --- |
| ATM | 1 | 0.44 (active) | migration reduced | 6151 |
| ATM | 2 | 0.64 | no change in migration or cell number | 4791 |
| ATM | 3 | 0.48 (active) | migration reduced | 4564 |
| ATM | 4 | 0.72 | no change in migration or cell number | 6493 |
| GCK | 1 | -0.14 (active) | migration reduced | 4322 |
| GCK | 2 | -0.38 | too few cells; migration not scored | 2242 |
| GCK | 3 | 0.86 | no change in migration or cell number | 6912 |
| GCK | 4 | 0.38 (active) | migration reduced | 5606 |
| RAD21 | 1 | 0.94 | no change in migration or cell number | 5403 |
| RAD21 | 2 | 0.14 (active) | migration reduced | 4942 |
| RAD21 | 3 | 0.73 | no change in migration or cell number | 5587 |
| RAD21 | 4 | 0.2 (active) | migration reduced | 4002 |
| FBXW11 | 1 | 0.57 (active) | migration reduced | 5654 |
| FBXW11 | 2 | 0.94 | no change in migration or cell number | 4870 |
| FBXW11 | 3 | 0.53 (active) | migration reduced | 4758 |
| FBXW11 | 4 | 0.5 (active) | migration reduced | 5236 |
| RHOBTB3 | 1 | 0.58 (active) | migration reduced | 4066 |
| RHOBTB3 | 2 | 1.06 | no change in migration or cell number | 4072 |
| RHOBTB3 | 3 | 1.31 (active) | migration increased | 5600 |
| RHOBTB3 | 4 | 0.78 | no change in migration or cell number | 3860 |
| MPST | 1 | 0.84 | no change in migration or cell number | 7001 |
| MPST | 2 | 0.51 (active) | migration reduced | 5486 |
| MPST | 3 | -0.56 | too few cells; migration not scored | 2119 |
| MPST | 4 | 0.74 | no change in migration or cell number | 6255 |
